Measured data: PubChem BioAssay AID504808 (Drosophila RNAi Screening Center, 2011)
Assay: 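Chromatin factors that keep E2F targets switched off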 (primary screen). Cell system: Drosophila S2 cells. Reagents: long dsRNA against Drosophila genes. Measurement: 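Dual luciferase plate measurements; E2F-specific signal taken as firefly over Renilla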. Scale: E2F firefly: higher = more E2F reporter activity; Renilla normaliser: higher = more normaliser reporter signal. Active means: 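a knock-down counted as active when the firefly/Renilla E2F signal rose above 50%, a threshold chosen arbitrarily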.
The screen tested about 21,000 reagents; below is a random part of those that have a named target and a result. Over the whole deposit, 18 (0.084%) were called active. 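Raw counts without plate normalisation, one of two replicates; the ratio scores behind the calls were not deposited.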 The numbers tell different reagents against one gene apart. Names joined by + are all predicted targets of the reagent. Not given: the amount of reagent, the time to read-out.

vtd: E2F firefly, rep 1 = 1.44e5; Renilla normaliser, rep 1 = 7121; activity call = inactive
mRpL37: E2F firefly, rep 1 = 1.51e5; Renilla normaliser, rep 1 = 7139; activity call = inactive
Rsf1: E2F firefly, rep 1 = 1.50e5; Renilla normaliser, rep 1 = 5611; activity call = inactive
tbrd-1: E2F firefly, rep 1 = 1.13e5; Renilla normaliser, rep 1 = 6175; activity call = inactive
sna: E2F firefly, rep 1 = 1.04e5; Renilla normaliser, rep 1 = 4243; activity call = inactive
CG17896: E2F firefly, rep 1 = 1951; Renilla normaliser, rep 1 = 1040; activity call = inactive
ocn: E2F firefly, rep 1 = 1.23e5; Renilla normaliser, rep 1 = 6039; activity call = inactive
CG7208: E2F firefly, rep 1 = 1.50e5; Renilla normaliser, rep 1 = 6392; activity call = inactive
trc: E2F firefly, rep 1 = 1.22e5; Renilla normaliser, rep 1 = 5317; activity call = inactive
Gr47b: E2F firefly, rep 1 = 1.24e5; Renilla normaliser, rep 1 = 5078; activity call = inactive
CG9536: E2F firefly, rep 1 = 92753; Renilla normaliser, rep 1 = 3935; activity call = inactive
CG4459: E2F firefly, rep 1 = 1.45e5; Renilla normaliser, rep 1 = 8116; activity call = inactive
CG8765: E2F firefly, rep 1 = 69422; Renilla normaliser, rep 1 = 9906; activity call = inactive
Oseg4: E2F firefly, rep 1 = 75627; Renilla normaliser, rep 1 = 3911; activity call = inactive
Pi3K92E: E2F firefly, rep 1 = 64033; Renilla normaliser, rep 1 = 3084; activity call = inactive
CG31835 + CG42585: E2F firefly, rep 1 = 1.29e5; Renilla normaliser, rep 1 = 5139; activity call = inactive
pen-2: E2F firefly, rep 1 = 1.68e5; Renilla normaliser, rep 1 = 6054; activity call = inactive
Root: E2F firefly, rep 1 = 1.06e5; Renilla normaliser, rep 1 = 6163; activity call = inactive
brm: E2F firefly, rep 1 = 1.40e5; Renilla normaliser, rep 1 = 9741; activity call = inactive
SelR: E2F firefly, rep 1 = 1.32e5; Renilla normaliser, rep 1 = 6538; activity call = inactive
Abp1: E2F firefly, rep 1 = 1.19e5; Renilla normaliser, rep 1 = 5606; activity call = inactive
Gale: E2F firefly, rep 1 = 76585; Renilla normaliser, rep 1 = 3371; activity call = inactive
CG30440 #1: E2F firefly, rep 1 = 1.54e5; Renilla normaliser, rep 1 = 5164; activity call = inactive
CG30440 #2: E2F firefly, rep 1 = 1.09e5; Renilla normaliser, rep 1 = 4672; activity call = inactive
CG30440 #3: E2F firefly, rep 1 = 1.27e5; Renilla normaliser, rep 1 = 4758; activity call = inactive
Ir60d: E2F firefly, rep 1 = 1.09e5; Renilla normaliser, rep 1 = 4733; activity call = inactive
beat-Ia: E2F firefly, rep 1 = 1.08e5; Renilla normaliser, rep 1 = 4646; activity call = inactive
mago: E2F firefly, rep 1 = 99465; Renilla normaliser, rep 1 = 3984; activity call = inactive
